Measured values from PMC3323469 (EJNMMI Research, 2012).
Square brackets hold non-standard residues; d marks the D form. * marks the point of attachment. NOTA = O=C(O)CN1CCN(CC(=O)O)CCN(CC(=O)*)CC1; 2Thi = N[C@@H](Cc1cccs1)C(=O)O; Nle = CCCC[C@H](N)C(=O)O; AEEA = NCCOCCOCC(=O)O; βAla = NCCC(=O)O

Experiment: general procedure: Fmoc solid-phase peptide synthesis; NovaSyn TGR resin and Sieber amide resin; PyBOP; HATU; ClHOBT; DIEA
Conditions: whole synthesis

With “{NOTA-AEEA}-[dY]QWAV[βAla]H[2Thi][Nle]-NH2 (SMILES CCCC[C@H](NC(=O)[C@H](Cc1cccs1)NC(=O)[C@H](Cc1c[nH]cn1)NC(=O)CCNC(=O)[C@@H](NC(=O)[C@H](C)NC(=O)[C@H](Cc1c[nH]c2ccccc12)NC(=O)[C@H](CCC(N)=O)NC(=O)[C@@H](Cc1ccc(O)cc1)NC(=O)COCCOCCNC(=O)CN1CCN(CC(=O)O)CCN(CC(=O)O)CC1)C(C)C)C(N)=O)” the “final HPLC purity” value (analytical HPLC) was 99% and the isolated yield (overall, based on substitution rate of the resin) was 38%.
